Data: US9775835B2 (priority 2012, dated 2017)
Some entries share one result that the patent states for a list of compounds. Some ranges recur; such a range may be that of the whole group of compounds.

Tested on: HIV (strain NL4-3)
Assay: HIV cell based assay (Level 1 / Level 2 Screen; CFAR assay): 293T transfection, TZM-bl infection, luciferase
Parameters: species or system HIV-1
Conditions: for Inhibitory effect on the HIV propagation: Level 1 screen, highest non-toxic concentration, strain NL4-3, FIG. 10
Experimental: Five hundred of the 1000 small molecule hits, having the highest binding affinity with the ASL's hypermodifications, were selected for screening at high concentration against HIV infected mammalian cells (FIG. 10). Briefly, toxicity was first assessed in 293T cells in 96-well plates (10^4 cells/well) by adding 50, 5 and 0.5 μM of small molecules in triplicate at each concentration. After two days, cells were assessed for poor growth versus control cells. Once the concentration of the small molecules at which the cells looked normal was established, these molecules were screened for anti-HIV activity through a transfection/infection protocol. An infectious molecular clone of HIV (strain NL4-3) was transfected into 293T cells using FuGene6 (Roche). After four hours, the cells were split into 96-well plates (10^4 cells/well) and the small molecules were added at the appropriate concentration in triplicate. After 48 hours of incubation of cells in the presence of the small molecules, virus-containing medium (50 μL) was removed from each well and transferred into a fresh 96-well plate containing TZM-bl cells for infection (10^4 cells/well). After 48 hours, the cells were assayed for luciferase expression. Controls were untransfected 293T cells and transfected cells without the small molecules added. Results from various small molecules with the best inhibition of HIV are shown in (FIG. 10). Active small molecules 2493, 9324, 8317, 2725, 3643, 2491, 12327, 14094, 12204, 12744, 12745, 12542, 18198, 18200, 8391, 6188, 16286 and 2712 have 80-95% inhibitory effect on the HIV propagation. These small molecules with bioactivity against HIV propagation are an example of some the hits further tested in a concentration-dependent screening.
Bioactive molecules selected in Level 1 Screen were tested using the cell based assay in a concentration (dose)-dependent manner for their ability to inhibit HIV propagation (FIG. 11). The HIV cell based assay experimental protocol described in Level 1 screen was used to conduct the Level 2 Screen. […] In addition to the concentration-dependent, cell based assay, the inhibitory activities of the active molecules identified in Screen Level 1 were also assessed using the MBS assay. This assay has been developed and standardized to mimic the unique properties characteristic of the HIV viral protein recruitment and preparation of the human host tRNA3^Lys as primer of reverse transcription. Thus, the cell-based assay and the “MBS” assay were used to confirm the mechanism of action of the hits against the functional interaction of htRNA3^Lys with HIV proteins. The MBS is a “mix and measure” assay that consists of the formation of a complex between the fluorescent peptide P6 and the fully modified anticodon stem and loop of htRNA3^Lys. The concentration of the small molecules was 150 μM i.e. 300 fold of that of P6. […] In the presence of various selected active molecules, inhibition of the complex between P6 and hASL3^Lys was observed (FIGS. 12 A, B and C). The results of these experiments allowed identification and concentration towards a smaller pool of active molecules.
In order to confirm the activity of the small molecules showing potential anti-HIV inhibition, a second round of testing using their analogs (˜20 analogs were chosen for each selected active small molecule) was initiated using the same cell based assay employed in Level 1 Screen and Level 2 Screen. […] The quality and structure of the small molecule hits and their respective analogs were confirmed by NMR and Liquid Chromatography coupled with Mass Spectrometry (LC-MS).
Dose response data of the active molecules were generated by running the biochemical and functional assays at varying concentration. The potency properties which is one of the characteristics that defines a hit, is evaluated based on the criteria that potency (IC50)<3 μM in the MBS assay and EC50<10 μM in the HIV cell based assay (See FIG. 19). […]

Compound | Inhibitory effect on the HIV propagation | Concentrations at which HIV propagation was inhibited (Level 2 Screen, concentration-dependent, FIG. 11) [µM]
CCOc1cc(/C=C/c2ccc3cccc(OC)c3n2)cc(I)c1OC(C)=O [Compound 12745, (E)-2-(3-ethoxy-6-iodo-4(2-(8-methoxyquinolin-2-yl)vinyl)phenyl acetate] | 80-95% | 
CNC(=O)Nc1ccccc1C(=O)N1CCCCC1 [Compound 2725, 1-methyl-3-(2-(piperidine-l-carbonyl)phenyl)urea] | 80-95% | 
Cc1cc(C)n2nc(C)c(-c3ccccc3)c2n1 [Compound 12327, 2,5,7-trimethyl-3-phenylpyrazolo[1,5-a]pyrimidine] | 80-95% | 
OCc1cc(Br)ccc1OCc1ccc(Cl)cc1Cl [Compound 3643, (5-bromo-2-(2,4-dichlorobenzyloxy)phenyl)methanol] | 80-95% | 
COc1cc(/C=C/c2ccc3cccc(OC)c3n2)cc(I)c1OC [Compound 12744, (E)-2-(3-methoxy-5-iodo-4-methoxystyryl)-8-methoxyquinoline] | 80-95% | 
COc1ccc(NC(=O)C2=C(C)NC3=C(C(=O)CC(c4ccc(OC)c(OC)c4)C3)C2c2cccc(F)c2)cc1 (centres unmarked) [Compound 2712, 7-(3,4-dimethoxyphenyl)-4-(3-fluorophenyl)-N-(4-methoxyphenyl)-2-methyl-5-oxo-1,4,5,6,7,8-hexahydroquinoline-3-carboxamide] | 80-95% | 5 to 50
O=[N+]([O-])c1cc(C(F)(F)F)ccc1NCCO [Compound 14094, 2-(2-nitro-4-(trifluoromethyl)phenylamino)ethanol] | 80-95% | 
CCCc1cc(=O)oc2c(C)c(OS(C)(=O)=O)ccc12 [Compound 9324, 8-methyl-2-oxo-4-propyl-2H-chromen-7-yl methanesulfonate] | 80-95% | 
O=C(Nc1ccc(Br)cn1)c1cc(Cl)ccc1Cl [Compound 12204, N-(5-bromopyridin-2-yl)-2,5-dichlorobenzamide] | 80-95% | 
CNS(=O)(=O)c1cccc(NC(=O)Nc2ccc(F)c(Cl)c2)c1 [Compound 2493, 3-(3-(3-chloro-4-fluorophenyl)ureido)-N-methylbenzenesulfonamide] | 80-95% | 
Oc1ccc(-c2nc3ccccc3s2)c(Cl)c1O [Compound 12542, 4-(benzo(d)thiazol-2-yl)-3-chlorobenzene-1,2-diol] | 80-95% | 
COC(=O)CC(c1ccc(Cl)c(Cl)c1)S(C)(=O)=O (centres unmarked) [Compound 8317, methyl 3-(3,4-dichlorophenyl)-3-(methylsulfonyl)propanoate] | 80-95% | 
NS(=O)(=O)c1cccc(NC(=O)Nc2ccc(Cl)c(Cl)c2)c1 [Compound 2491, 3-(3-(3,4-dichlorophenyl)ureido)benzenesulfon-amide] | 80-95% | 
